PubChem BioAssay AID1259254 – NCATS – 2017

Purpose: 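Genome-wide screen for genes that prevent DNA re-replication in cancer cells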 (primary screen)
System: human HCT116 colorectal cancer cells
Reagent: single siRNA against human genes
Timing: 3 days
Measured: 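Imaged Hoechst DNA stain sorts each cell into a cycle phase by DNA amount; per plate, G2 fraction set to 0% for non-targeting and 100% for GMNN siRNA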
Reading the numbers: G2 robust z-score and G2 cells, % of GMNN control: higher = more G2 cells, more excess DNA replication
Hit rule: 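Active siRNAs have a G2 robust z of 5 or more median absolute deviations over the median, which in these data means about 38% or higher of GMNN control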
This is an unselected part of about 59,000 reagents. About 1,550 of all reagents (2.6%) count as active. 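G2 share is only a proxy for re-replication; each gene was hit by three separate siRNAs, and active genes were retested.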 The numbers tell different reagents against one gene apart. Further read-outs or replicates are left out here. Reagent sequences are not shown. Not given: the amount of reagent.

Target gene	siRNA no.	G2 robust z-score	G2 cells, % of GMNN control	activity call
TNXB	1	1.46	13.2	inactive
TNXB	2	0.141	3.96	inactive
TNXB	3	-0.69	-1.89	inactive
MAP2K1	1	-1.12	-4.93	inactive
MAP2K1	2	-1.32	-6.32	inactive
MAP2K1	3	-0.826	-2.84	inactive
ATP5IF1	1	-0.954	-3.74	inactive
ATP5IF1	2	-0.95	-3.71	inactive
ATP5IF1	3	-0.711	-2.04	inactive
SGTA	1	-0.618	-1.38	inactive
SGTA	2	-0.114	2.16	inactive
SGTA	3	0.0579	3.37	inactive
HIPK3	1	-0.284	0.966	inactive
HIPK3	2	10.3	75.3	active
HIPK3	3	-1.16	-5.22	inactive
HOXA10	1	-0.44	-0.132	inactive
HOXA10	2	-0.846	-2.98	inactive
HOXA10	3	-1.3	-6.21	inactive
STUB1	1	-1.55	-7.93	inactive
STUB1	2	-0.975	-3.89	inactive
STUB1	3	0.171	4.17	inactive
PLEKHA7	1	0.243	4.68	inactive
PLEKHA7	2	0.621	7.34	inactive
PLEKHA7	3	-0.893	-3.32	inactive
PRMT9	1	0.591	7.13	inactive
PRMT9	2	0.868	9.07	inactive
PRMT9	3	3.13	25	inactive
MLLT3	1	-0.382	0.281	inactive
MLLT3	2	-0.387	0.243	inactive
MLLT3	3	0.512	6.57	inactive
CRISPLD2	1	-0.923	-3.53	inactive
CRISPLD2	2	1.2	11.4	inactive
CRISPLD2	3	4.19	32.4	inactive
AXIN2	1	-0.273	1.05	inactive
AXIN2	2	-0.171	1.77	inactive
AXIN2	3	-0.851	-3.02	inactive
SF1	1	0.555	6.87	inactive
SF1	2	2.33	19.4	inactive
SF1	3	1.3	12.1	inactive
LHFPL1	1	2.32	19.3	inactive
LHFPL1	2	2.04	17.3	inactive
LHFPL1	3	-0.417	0.0327	inactive
OR6C74	1	-0.838	-2.93	inactive
OR6C74	2	0.369	5.56	inactive
OR6C74	3	0.126	3.85	inactive
GBA2	1	-0.321	0.71	inactive
GBA2	2	2.32	19.3	inactive
GBA2	3	0.707	7.94	inactive
PPHLN1	1	0.0101	3.04	inactive
PPHLN1	2	0.0517	3.33	inactive
PPHLN1	3	-0.713	-2.05	inactive
RHPN1	1	-0.653	-1.63	inactive
RHPN1	2	1.33	12.4	inactive
RHPN1	3	0.417	5.9	inactive
CLDN4	1	-0.152	1.9	inactive
CLDN4	2	-0.272	1.05	inactive
CLDN4	3	-0.26	1.14	inactive
CKMT1B	1	-0.496	-0.524	inactive
CKMT1B	2	0.466	6.24	inactive
CKMT1B	3	-0.799	-2.65	inactive
DACT1	1	-0.999	-4.06	inactive
DACT1	2	0.29	5.01	inactive
DACT1	3	-0.679	-1.81	inactive
VAPB	1	-0.386	0.248	inactive
VAPB	2	0.442	6.08	inactive
VAPB	3	0.354	5.46	inactive
HOXA13	1	0.237	4.63	inactive
HOXA13	2	-0.135	2.02	inactive
HOXA13	3	0.325	5.26	inactive

Look-ups from above:
SGTA #2, activity call: inactive
Entry of AXIN2 #3 under “G2 cells, % of GMNN control”: -3.02
For “G2 robust z-score”, MAP2K1 #2 has -1.32
Under “G2 robust z-score”, PPHLN1 #2 has 0.0517
Under “G2 cells, % of GMNN control”, PPHLN1 #3 reads -2.05
Entry for HOXA10 #3 under “G2 cells, % of GMNN control”: -6.21
